This test is described as follows: IkB Signaling. Particulars: ABC-DLBCL IkBa-CBG/CBR dual luciferase ratio (green luciferase fused to IkBa over red control in OCI-Ly3 lymphoma cells), 4 h. The method in brief: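 In this assay, an IκBα–CBG68 fusion accumulates when IKK-driven degradation is blocked; native CBR normalizes for cell number. OCI-Ly3 cells were treated 4 h with compound and doxycycline, then green and red light read after Chroma-Glo addition.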
Where [1] appears, read: measured here: control luc red channel unless noted.
Setting [2] is: measured here: IkB-luc green channel.
[3] abbreviates: measured here: control luc red channel.

The list shows a part of the results. Further columns of the screen follow, without active or inactive calls. Compounds called inactive in the main read-out are mostly missing here. Potencies come from curve fits of mixed quality, noted in brackets.

61 compounds from PubChem BioAssay AID445 (National Center for Advancing Translational Sciences (NCATS), 2006) can be followed below.

What is called AC50 is the concentration giving half of the maximal activity seen.

Consider `Cc1cccc(N2CCN(C(=O)CN3C(=O)COc4ccc(S(=O)(=O)N5CCCCCC5)cc43)CC2)c1C`, for which the AC50 under setting [1] is 12.6 µM [falling, partial curve].
As for `C=CCn1c(SCC(=O)Nc2ccc(C(=O)OCC)cc2)nnc1-c1sc(N)nc1C`, under setting [1], the AC50 is 12.6 µM [falling, partial curve].
Turning to `Cc1nc(N2CCOCC2)c2c(C(=O)NCCc3ccccc3)c(C)oc2n1`, the AC50 under setting [1] was 10 µM [rising, partial curve].
In the case of `CCCCn1cc2c(c1-c1ccccc1Br)c(=O)n(C)c(=O)n2C`, the AC50 under setting [1] is 25.1 µM [falling, single point].
As to `Cc1ccc(C(=O)n2nc(-c3ccco3)nc2NCc2cccs2)cc1`, the AC50 under setting [1] was 6.31 µM [rising, single point].
The same measure, in the same setting: the same measure for `COc1cccc(-n2c(-c3ccc(Cl)cc3)cc3c2CC(C)(C)CC3=O)c1`: 15.8 µM [falling, partial curve]; for `COc1cc2c(=O)n(Cc3ccccc3Cl)c(=O)n(CC(=O)Nc3ccccc3)c2cc1OC`: 15.8 µM [falling, partial curve]; for `Cc1cc2cc(CN(Cc3ccc4c(c3)OCO4)C(=O)c3cnccn3)c3nnnn3c2cc1C`: 39.8 µM [falling, single point].
Consider `CC(C)C(=O)N1CCN(c2ccccc2N)CC1`, for which the AC50 under setting [1] is 3.98 µM [falling, partial curve].
Regarding `Cc1ccc(-c2nnc(SCC(=O)NC3CCCC3)nc2-c2ccc(C)cc2)cc1`, under setting [1], the AC50 is 25.1 µM [falling, partial curve].
As for `O=C(Cc1cc(=O)[nH]c(=O)[nH]1)NCC1CCCO1` (centres undefined), the half-maximal activity concentration (AC50) by setting is: under setting [2], 3.16 µM [falling, full curve]; under setting [3], 0.631 µM [falling, full curve].
As for `COC(=O)c1ccccc1NS(=O)(=O)c1ccc2c3c(cccc13)C(=O)N2`, under setting [1], the AC50 was 20 µM [falling, single point].
The same measure, in the same setting: as for `Cc1ccccc1Nc1sc(C(=O)c2ccccc2)c(N)c1C(=O)NCc1ccc(Cl)cc1`, the figure is 2.51 µM [falling, full curve, poor fit].
For the compound `CCOC(=O)C1CCN(S(=O)(=O)c2cc3c4c(c2)CC(=O)N4CCC3)CC1`, the AC50 under setting [1] is 10 µM [rising, partial curve].
On to `CN(C)S(=O)(=O)n1cc(/C=C(\NC(=O)c2ccccc2Cl)C(=O)NCCCn2ccnc2)c2ccccc21`, for which the AC50 under setting [1] is 12.6 µM [falling, partial curve].
Consider `O=C(Nc1ccc2c(c1)oc1ccccc12)N1CCOCC1`, for which the AC50 under setting [1] was 39.8 µM [falling, single point].
Turning to `COc1cccc(C(=O)N2c3nc(-c4ccco4)nn3C3(CCCCC3)[C@@H]3CCCC[C@@H]32)c1`, the half-maximal activity concentration (AC50) under setting [1] is 20 µM [falling, single point].
Turning to `CCc1nn(C(C)C(=O)N2CCN(c3cccc(C(F)(F)F)c3)CC2)c(=O)c2cc3occc3n12` (centres undefined), the AC50 under setting [1] was 12.6 µM [falling, partial curve].
Consider `CCCNC(=O)c1c(C)nn(-c2cccc(C)c2)c1-n1cccc1`, for which the AC50 under setting [1] was 15.8 µM [falling, single point].
In the case of `CCN(CC)c1nc2c(-c3cccc(Br)c3)nnn2c2ccccc12`, the AC50 under setting [1] is 0.00794 µM [falling, full curve].
Same read-out and setting: the same measure for `CCN1CCN(C(c2ccc(OC)cc2)c2c(O)cc(C)n(Cc3ccco3)c2=O)CC1` (centres undefined): 31.6 µM [falling, single point].
For the compound `COc1ccc(CNC(=O)c2ccc(NC(=O)N3CC4CCCN4c4ccccc43)cc2)cc1` (centres undefined), the AC50 under setting [1] is 7.94 µM [falling, partial curve].
The same measure, in the same setting: the same measure for `COc1cccc(NC(=O)C2CCN(S(=O)(=O)c3cccc4nonc34)CC2)c1`: 15.8 µM [falling, single point].
Regarding `Cc1ccc(-n2ncc(C(=O)NCCc3ccccc3)c2C2CCN(C(=O)OC(C)(C)C)CC2)c(C)c1`, under setting [1], the AC50 is 15.8 µM [falling, partial curve].
With `Cc1nc(-c2ccc(S(=O)(=O)Nc3ccc(C#N)cc3)cc2)co1`, the AC50 under setting [1] is 1 µM [rising, full curve].
On to `COC(=O)c1ccc(NC(=O)CSc2nc(C)cc(C)c2C(=O)Nc2ccccc2)cc1`, for which, under setting [1], the AC50 is 15.8 µM [falling, partial curve].
On the same count and under the same terms, the same measure for `CCOc1ccc(/C=C/C(=O)Nc2sc3c(c2C(=O)OC)C(C(=O)OC)CC3)cc1` (centres undefined): 31.6 µM [rising, single point] [measured here: IkB-luc green channel].
In the case of `CCOC(=O)c1cc(C)n(CC2CCC(C(=O)Nc3ccc(C(C)=O)cc3)CC2)c1C` (centres undefined), the AC50 under setting [1] was 12.6 µM [falling, partial curve].
On to `COc1ccc(N2CCN(C(=O)c3cccc(-n4c(C)nc5cccnc54)c3)CC2)cc1`, for which the AC50 under setting [1] is 39.8 µM [falling, single point].
Regarding `COc1cc2cc(CNc3ccccc3)c(=O)n(CC(=O)Nc3ccccc3)c2cc1OC`, the AC50 under setting [1] was 31.6 µM [falling, single point].
As for `Cc1c(C(=O)NCc2ccccc2)oc2ccc(S(=O)(=O)N3CCC4(CC3)OCCO4)cc12`, the AC50 under setting [1] was 12.6 µM [falling, partial curve].
Same read-out and setting: as for `CCCNS(=O)(=O)c1ccc2nc(NC(=O)c3ccc(F)cc3)sc2c1`, the figure is 6.31 µM [falling, partial curve].
`CSc1ccc(CNC(=O)C2CCCN(S(=O)(=O)N(C)c3ccc(F)cc3)C2)cc1` (centres undefined): the AC50 under setting [1] was 12.6 µM [falling, partial curve].
Regarding `CCc1ccc2c(c1)c(=O)c(S(=O)(=O)c1ccc(Cl)cc1)cn2CC`, the half-maximal activity concentration (AC50) under setting [1] is 31.6 µM [falling, single point].
In the case of `O=C(CC1(O)C(=O)N(CCc2ccccc2)c2ccc(Br)cc21)c1ccc(F)cc1` (centres undefined), the AC50 under setting [1] is 15.8 µM [falling, partial curve].
`O=C1c2ccccc2C(Nc2ccc(F)c(Cl)c2)N1c1ccccn1` (centres undefined): under setting [1], the AC50 is 12.6 µM [falling, partial curve].
With `Nc1c(C(=O)NCc2ccc(Cl)cc2Cl)nnn1Cc1ccc(Br)cc1`, the AC50 under setting [1] was 10 µM [falling, partial curve].
With `COC(=O)c1ccc(NC(=O)CN2CCN(c3cccc(Cl)c3)CC2)cc1`, the AC50 under setting [1] is 25.1 µM [falling, partial curve].
On to `CCn1c(SCCOc2ccc(Cl)cc2)nnc1-c1cccs1`, for which, under setting [1], the AC50 was 39.8 µM [falling, single point].
Consider `O=C1c2ccccc2C(=O)N1CCSc1nnc(-c2ccco2)n1Cc1ccccc1`, for which, under setting [1], the AC50 is 10 µM [falling, partial curve].
As to `Cc1ccc(S(=O)(=O)NCC2CCC(C(=O)NCc3ccc(F)cc3)CC2)cc1` (centres undefined), the AC50 under setting [1] is 15.8 µM [falling, partial curve, poor fit].
`CCn1c(SCC(=O)N2CCCc3ccccc32)nnc1-c1c[nH]c2ccccc12`: the AC50 under setting [1] was 15.8 µM [falling, partial curve].
Consider `C#CCSc1nnc(-c2cccc3ccccc23)o1`, for which, under setting [1], the AC50 is 0.631 µM [rising, full curve, poor fit].
For `COc1ccc(-c2nc3ccccc3n3c(-c4cccc(C)c4)c4c(=O)n(C)c(=O)n(C)c4c23)cc1`, the AC50 under setting [1] was 2.51 µM [falling, partial curve].
With `O=C(CN1C(=O)C2CCCCN2c2ccc(C(=O)N3CCCC3)cc21)NCc1ccccc1` (centres undefined), the AC50 under setting [1] was 10 µM [falling, partial curve].
Take `COC(=O)c1ccccc1NC(=O)CSc1nc2sc3c(c2c(=O)[nH]1)CCCC3`: the AC50 reads like this: under setting [2], 39.8 µM [rising, single point]; under setting [3], 31.6 µM [rising, single point].
Consider `CC(=O)NC(=O)NC1OC(=O)C(Cl)=C1Cl` (centres undefined), for which the AC50 under setting [1] is 39.8 µM [rising, partial curve] [measured here: IkB-luc green channel].
On to `COc1ccccc1CNc1nc(-c2ccco2)nn1C(=O)c1ccccc1[N+](=O)[O-]`, for which, under setting [1], the AC50 was 20 µM [falling, single point].
As to `CCOc1ccc(NS(=O)(=O)c2ccc3[nH]c(=O)oc3c2)cc1`, under setting [1], the AC50 is 15.8 µM [falling, partial curve].
On the same count and under the same terms, as for `COc1ccc(-c2cc(C(F)(F)F)nc(S(=O)(=O)CCCC(=O)Nc3ccccc3C(F)(F)F)n2)cc1OC`, the figure is 6.31 µM [falling, partial curve].
Same read-out and setting: as for `COc1ccc(S(=O)(=O)N2Cc3ccccc3CC2C(=O)Nc2cccc(C)c2)cc1OC` (centres undefined), the figure is 15.8 µM [falling, partial curve]; as for `Cc1cc(=O)n2c(C(=O)Nc3ccc(C)c(C)c3)c(C(=O)Nc3ccccc3)sc2n1`, 3.98 µM [falling, full curve]; as for `c1cc(Nc2ncnc3sccc23)cc(-c2nnc3n2CCCCC3)c1`, 25.1 µM [falling, single point].
As for `CCN(C(=O)CSc1nnc(-c2ccc(Cl)cc2)o1)c1ccccc1`, under setting [1], the AC50 was 5.01 µM [falling, partial curve].
On the same count and under the same terms, as for `O=C(CSc1nc(-c2ccco2)nc2cc(=O)[nH]n12)Nc1ccccc1Cl`, the figure is 20 µM [falling, partial curve].
Turning to `CCOC(=O)c1cnc(-n2nc(C)cc2C)nc1NCCc1ccccc1`, under setting [1], the AC50 is 10 µM [falling, partial curve].
On to `COc1ccccc1CNC(=O)Cn1c(=O)oc2ccccc21`, for which, under setting [1], the AC50 is 10 µM [falling, partial curve].
On to `Cc1nn(-c2nc3ccccc3[nH]2)c(N)c1-c1ccccc1`, for which the AC50 is, setting by setting: under setting [2], 31.6 µM [rising, single point]; under setting [3], 12.6 µM [falling, partial curve].
For `O=C(CSc1nc2c(c(=O)[nH]1)CCCC2)Nc1cccc(O)c1`, under setting [1], the AC50 was 25.1 µM [falling, single point].
On to `COCCCNC(=O)C1CCN(c2nnc(-n3cccc3CNc3ccc(C)cc3)s2)CC1`, for which, under setting [1], the AC50 was 39.8 µM [falling, single point].
For the compound `COc1cc2[nH]c(=O)n(CCCC(=O)NCc3ccccc3Cl)c(=O)c2cc1OC`, the AC50 under setting [1] was 6.31 µM [falling, full curve].
